Article PMC10535824 (Pharmaceuticals, 2023)
Square brackets hold non-standard residues; d marks the D form. 1Nal = N[C@@H](Cc1cccc2ccccc12)C(=O)O; 2Nal = N[C@@H](Cc1ccc2ccccc2c1)C(=O)O; d1Nal = N[C@H](Cc1cccc2ccccc12)C(=O)O; d2Nal = N[C@H](Cc1ccc2ccccc2c1)C(=O)O; Bta = N[C@@H](Cc1csc2ccccc12)C(=O)O; dBta = N[C@H](Cc1csc2ccccc12)C(=O)O

assay: peptide synthesis; details: cyclisation step, on linear precursor

Compared with “cyclo(F[dP]F[1Nal]) (SMILES O=C1N[C@@H](Cc2ccccc2)C(=O)N2CCC[C@@H]2C(=O)N[C@@H](Cc2ccccc2)C(=O)N[C@H]1Cc1cccc2ccccc12)”, “cyclo(F[dP]F[2Nal]) (SMILES O=C1N[C@@H](Cc2ccccc2)C(=O)N2CCC[C@@H]2C(=O)N[C@@H](Cc2ccccc2)C(=O)N[C@H]1Cc1ccc2ccccc2c1)” is higher in cyclisation yield: 50% for the first, 82% for the second.

First: cyclo(F[dP]F[Bta]) (SMILES O=C1N[C@@H](Cc2ccccc2)C(=O)N2CCC[C@@H]2C(=O)N[C@@H](Cc2ccccc2)C(=O)N[C@H]1Cc1csc2ccccc12)
Second: cyclo(F[dP]F[d1Nal]) (SMILES O=C1N[C@H](Cc2cccc3ccccc23)C(=O)N[C@@H](Cc2ccccc2)C(=O)N2CCC[C@@H]2C(=O)N[C@H]1Cc1ccccc1)
The cyclisation yield of the first is lower: 49% for the first, 57% for the second.

First: cyclo(F[dP]F[d2Nal]) (SMILES O=C1N[C@H](Cc2ccc3ccccc3c2)C(=O)N[C@@H](Cc2ccccc2)C(=O)N2CCC[C@@H]2C(=O)N[C@H]1Cc1ccccc1)
Second: cyclo(F[dP]F[dBta]) (SMILES O=C1N[C@H](Cc2csc3ccccc23)C(=O)N[C@@H](Cc2ccccc2)C(=O)N2CCC[C@@H]2C(=O)N[C@H]1Cc1ccccc1)
The cyclisation yield of the first is higher: 67% for the first, 61% for the second.
